Construct, isoform or probe ends are uncertain for at least one entry. For some of these results: At least one verdict was read from the data and is not stated in words by the source.
What was measured:
[1] = tested on: PNPase WT + Hfq; test: cryo-EM; conditions: 2D class averages only; recombinant protein; probe letters rebuilt from the primers and the genome; part of a longer molecule
[2] = tested on: PNPase WT + Hfq; test: EMSA; conditions: 400 nM RNA, 400 nM Hfq hexamer, ternary complex, EMSA: 0.4 uM RNA, PNPase trimer 1:1 and 3:1 over RNA, 20 mM Tris pH 7.5, 100 mM NaCl, 1 mM MgCl2, 1 mM DTT, 30 C 20 min, native PAA gel with 10% glycerol, recombinant protein

Sequence | binding result [2] | other results
ACUUCCUGAGCCGGAACGAAAAGUUUUAUCGGAAUGCGUGUUCUGGUGAACUUUUGGCUUACGGUUGUGAUGUUGUGUUGUUGUGUUUGCAAUUGGUCUGCGAUUCAGACCAUGGUAGCAAAGCUACCUUUUUUCACUUCCUGUACAUUUACCCUGUCUGUCCAUAGUGAUUAAUGUAGCACCGCCUAAUUGCGGUGCUUUUUUUU [GcvB] | – | binding result [1]: binds
GCGAUCAGGAAGACCCUCGCGGAGAACCUGAAAGCACGACAUUGCUCACAUUGCUUCCAGUAUUACUUAGCCAGCCGGGUGCUGGCUUUUUUUUU [RyhB] | – | binding result ([2]; probe letters rebuilt from the primers and the genome): binds
GCUGAAAAACAUAACCCAUAAAAUGCUAGCUGUACCAGGAACCACCUCCUUAGCCUGUGUAAUCUCCCUUACACGGGCUUAUUUUUU [CyaR] | binds | –
GGGAAAGAUAAGAAUAAAAUCAAAGCAAUAAGCAGUGUCGUGAAACCACCUUCGGGUGGUUUUUUU [3'ETSleuZ] | binds | –
